## Results from one PubChem assay

Source: PubChem BioAssay AID977630 (Broad Institute, 2014).

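Mixed E. coli culture in which the wild-type GFP-labelled strain's fluorescence is read after 24 h, reported as change in activity. Percent-style change in GFP activity at 50 µM; values more negative mean stronger inhibition. Active needs green reporter loss at least twice the red loss with limited overall growth inhibition; inconclusive means no clear call.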

Common to all entries: at 50 µM (top of the series). All entries here are filed as inconclusive. These entries are mostly ones the record files as inconclusive; other results of the assay are not listed here.

Compound	activity change
CC1(C(=O)NS(=O)(=O)c2ccc3c(c2)CCO3)CCN1C(=O)c1ccccc1CCc1ccccc1 (centres unmarked)	-1.557
COc1ccc(-n2c(-c3ccc(Cl)cc3)c[n+]3c2CCCCC3)cc1	-40.78
COc1ccc(C(=O)NCCC2=CCCCC2)cc1[N+](=O)[O-]	2.307
Cc1cc2c(sc3ccccc32)c(C)n1	-24.33
NC(=O)C1CCN(c2cc(Cl)ccc2[N+](=O)[O-])CC1	28.62
COc1ccc(NC(=O)C2CC3C=CC2C3)c([N+](=O)[O-])c1 (centres unmarked)	2.723
Cc1cccc(S(=O)(=O)NC(=O)C2(C)CCN2C(=O)c2ccccc2CCc2ccccc2)c1 (centres unmarked)	-8.98
c1ccc(-c2nc3c4ccccc4ccn3c2CN2CCOCC2)cc1	-10.46
O=S(=O)(c1cccc(-c2nc3ccccc3s2)c1)N1CCCC1	-16.52
COc1ccccc1C(C(C(=O)c1ccccc1)N1CCOCC1)N1CCOCC1 (centres unmarked)	19.41
O=C(CCC(=O)N1CCN(c2ccc(F)cc2)CC1)N1CCN(c2ccc(F)cc2)CC1	5.576
COc1ccc(/C=C/c2nc3ccccc3n2Cc2ccccc2OC)cc1	-18
COc1ccccc1Cn1c(=S)[nH]c2ccc(F)cc2c1=O	-42.37
COc1ccc(-c2cc(C(=O)N(C)CCc3ccc(OC)c(OC)c3)c3ccccc3n2)cc1	-22.2
O=C(O)CC(CC(=O)Nc1ccc2ccccc2n1)c1ccccc1 (centres unmarked)	-2.662
Cc1cccc(C)c1NC(=O)CNC(=O)C(C)N1CCN(c2cccc(Cl)c2)CC1 (centres unmarked)	-43.81
Cc1cc(C(=O)Nc2ccc3ccccc3c2)c(C)o1	7.351
COc1ccc(CCCc2nc3ccccc3[nH]2)cc1	-28.66
CCc1ccc(OCC(=O)NCc2ccco2)c(Br)c1	-6.472
CC(C)Cc1nnc(NC(=O)c2ccc3c(=O)n4c(nc3c2)CCC4)s1	-18.41
Cc1ccc(C(=O)C2CCN(CC(=O)Nc3nc(C)cs3)CC2)cc1	-40.81
O=S(=O)(Nc1cccc(-c2ccc(N3CCCCCC3)nn2)c1)c1ccc(F)cc1	-39.49
COc1ccccc1-c1cc2nc(NCCc3ccncc3)ccn2n1	-20.52
O=[N+]([O-])c1cccc(COc2ccc(CN3CCOCC3)cc2)c1	18.13
COc1ccc(C(=O)Nc2nc3ccc(OC)cc3s2)cc1	-24.08
COc1cc2c(cc1OC)CN(CC(=O)Nc1ccccc1SC)CC2	-13.9
N#Cc1ccc(OCC(=O)N2CCN(S(=O)(=O)c3ccc(Cl)s3)CC2)cc1	-10.09
O=C(Nc1cccnc1)c1sc2cccc(F)c2c1Cl	-37.33
OCCN(Cc1ccccc1)Cc1ccc(Cl)cc1	-14.61
COc1ccc(CCNc2nc(-c3ccncc3)cs2)cc1OC	-21.5
O=C1c2ccccc2S(=O)(=O)c2cc(N3CCC(C(=O)N4CCCCC4)CC3)ccc21	-37.22
COc1cccc(CN(C)Cc2nc(Cc3ccccc3Cl)no2)c1	0.456
O=C(Cc1coc2cc(O)ccc12)N1CCN(S(=O)(=O)c2ccc(Br)cc2)CC1	-16.54
COc1cc(SC)ccc1C(=O)N1CCN(c2ccccc2F)CC1	-15.93
CC(=O)Nc1cccc(OCc2ccc([N+](=O)[O-])cc2)c1	-14.63
CC(=O)c1cccc(NC(=O)C2CCCN(S(C)(=O)=O)C2)c1 (centres unmarked)	27.2
O=C(c1ccc2c(c1)CCN2S(=O)(=O)c1ccccc1)N1CCN(c2ccccc2)CC1	-32.49
CS(=O)(=O)Nc1ccccc1C(=O)NCCSc1ccccc1	-21.06
CC(C)OCCCNC(=O)c1ccc(CS(=O)(=O)c2cccc(C(F)(F)F)c2)o1	18.75
COC(=O)c1sccc1NC(=O)Cn1nnc(-c2ccccc2C)n1	-11.52
COc1cccc(NC(=O)COC(=O)Cc2ccc(Br)cc2)c1	-15.94
COc1cccc(NC(=O)C(C)SCc2ccccc2)c1 (centres unmarked)	6.293
CCN(c1ccccc1)S(=O)(=O)c1ccc(OC)c(OC)c1	-10.59
O=C(NCc1nnnn1-c1ccc(Cl)cc1)c1ccc([N+](=O)[O-])o1	-6.259
O=C(Nc1cccc(S(=O)(=O)N2CCCCC2)c1)c1ccc([N+](=O)[O-])o1	-72.91
Cc1ccc(-c2c(=O)n(O)c3ccccc3[n+]2[O-])cc1	-7.912
CCOc1ccc2nc(SCC(=O)Nc3cccc(S(=O)(=O)NC4=NCCCCC4)c3)[nH]c2c1	-22.69
O=C(C[n+]1ccn(-c2ccccc2)c1)c1ccc([N+](=O)[O-])cc1	31.5
Cc1ccc(-n2c(SCC(N)=O)nnc2-c2cnccn2)cc1	-1.925
CN(CCOc1ccccc1)C(=O)c1ccc(OC2CCN(C(=O)C3CC3)CC2)cc1	1.195
Brc1cc2c(cc1Br)OCCOCCOCCO2	-5.138
CCOC(=O)Cc1csc(SCC(=O)Nc2cc(C)ccc2OC)n1	11.88
COc1cc(OC)nc(Oc2ccccc2C(=O)Oc2ccc(C)cc2)n1	-20.3
CC(C)CN(C(=O)c1cc([N+](=O)[O-])cc([N+](=O)[O-])c1)C1CCS(=O)(=O)C1 (centres unmarked)	35.14
COc1cccc2c1Oc1cc([N+](=O)[O-])cc(N(C)C(C)=O)c1C=C2	-39.79
CCCC(=O)N(CCc1ccc(OC)cc1)Cc1nc2ccccc2c(=O)[nH]1	-13.96
COc1ccc([C@H]2C[C@H](O)C[C@@H](CCn3cc(-c4ccccc4)nn3)O2)cc1	-24.08
O=C(O)CSc1nc2ccccc2n1C1CCCCC1	-22.47
COc1ccc(-n2c(-c3ccc(C)cc3)nc3ccccc3c2=O)cc1	-12.27
Brc1ccccc1CN1CCC(Cc2ccccc2)CC1	-23.6
Cc1[nH]nc2c1C(c1ccc(Br)cc1)N(Cc1ccccc1)C2=O (centres unmarked)	-50.09
CCC(C(=O)NCCc1ccc(C)cc1)n1nc(C)c2c(C)n(-c3ccccc3)nc2c1=O (centres unmarked)	-15.55
CC(NC(=O)c1ccc(CS(=O)(=O)c2ccc(Cl)cc2)o1)c1ccc2c(c1)OCCO2 (centres unmarked)	-8.815
CCN(c1ccccc1)S(=O)(=O)c1cccc(C(=O)NCC(c2cccs2)N(C)C)c1 (centres unmarked)	8.701
COCc1cc(C)nc(SCC[N+](C)(C)CC(=O)c2ccc(Br)cc2)c1C#N	-8.387
Cn1c(CCN2CCOCC2)nc2cc(NC(=O)c3cccs3)ccc21	42.72
NC(=O)c1ccsc1NC(=O)COC(=O)CSc1ccc(Cl)cc1	-27.95

6 of the entries, repeated:

For COc1cccc2c1Oc1cc([N+](=O)[O-])cc(N(C)C(C)=O)c1C=C2 the result was activity change -39.79.
For CCN(c1ccccc1)S(=O)(=O)c1ccc(OC)c(OC)c1 the result was activity change -10.59.
For O=C(Cc1coc2cc(O)ccc12)N1CCN(S(=O)(=O)c2ccc(Br)cc2)CC1 the result was activity change -16.54.
For O=C(Nc1cccc(S(=O)(=O)N2CCCCC2)c1)c1ccc([N+](=O)[O-])o1 the result was activity change -72.91.
For OCCN(Cc1ccccc1)Cc1ccc(Cl)cc1 the result was activity change -14.61.
For COc1ccc(CCCc2nc3ccccc3[nH]2)cc1 the result was activity change -28.66.